Our source for the binding values is PMC6443190, “Regulation of anthocyanin accumulation via MYB75/HAT1/TPL-mediated transcriptional repression” (PLoS Genetics, 2019).

Results are given in words; binding and its absence hold for the method and conditions named. Binding can be weak; no strength is given. Sequences can lack the tags named with a protein.

Experiment [1] concerns the target MYB75 R2 domain (pull-down fragment) (Arabidopsis thaliana). In words: pull-down; Ni-NTA beads with 5 ug HIS protein incubated with 5 ug MBP protein; 150 mM NaCl, 20 mM Tris, 0.2% Triton X-100, pH 8.0, 4 C, 2 h; anti-MBP blot; both purified.
Experiment [2] concerns the target MYB75 C-terminal fragment (pull-down fragment) (Arabidopsis thaliana). The experiment is described as above.
Experiment [3] addresses TPL N terminus (pGBKT7 fusion, yeast two-hybrid) (Arabidopsis thaliana). The experiment can be described thus: two-hybrid; directed assay; yeast AH109 with pairs of pGADT7 and pGBKT7 plasmids; growth on SD-Leu/-Trp/-Ade/-His.

B1: MBP-HAT1 (protein, UniProt P46600 1-282)
chain: MMMGKEDLGLSLSLGFAQNHPLQLNLKPTSSPMSNLQMFPWNQTLVSSSDQQKQQFLRKIDVNSLPTTVDLEEETGVSSPNSTISSTVSGKRRSTEREGTSGGGCGDDLDITLDRSSSRGTSDEEEDYGGETCRKKLRLSKDQSAVLEDTFKEHNTLNPKQKLALAKKLGLTARQVEVWFQNRRARTKLKQTEVDCEYLKRCVEKLTEENRRLEKEAAELRALKLSPRLYGQMSPPTTLLMCPSCERVAGPSSSNHNQRSVSLSPWLQMAHGSTFDVMRPRS
For the molecule B1, the binding entry is recorded as “binds” in experiment [1] and “binds weakly” in experiment [2].

B2: HAT1 (pGADT7 fusion, yeast two-hybrid) (protein, UniProt P46600 1-282)
chain: MMMGKEDLGLSLSLGFAQNHPLQLNLKPTSSPMSNLQMFPWNQTLVSSSDQQKQQFLRKIDVNSLPTTVDLEEETGVSSPNSTISSTVSGKRRSTEREGTSGGGCGDDLDITLDRSSSRGTSDEEEDYGGETCRKKLRLSKDQSAVLEDTFKEHNTLNPKQKLALAKKLGLTARQVEVWFQNRRARTKLKQTEVDCEYLKRCVEKLTEENRRLEKEAAELRALKLSPRLYGQMSPPTTLLMCPSCERVAGPSSSNHNQRSVSLSPWLQMAHGSTFDVMRPRS
Take B2: the binding entry in experiment [3] is recorded as “binds”.
